Measured values published in PMC4678828, “Binding dynamics of a monomeric SSB protein to DNA: a single-molecule multi-process approach”.
The exact form of at least one protein or probe is not confirmed. For part of these data: Weaker means in comparison with the reference protein, sequence or condition of that experiment. Tags and fusion partners may be left off the protein sequences shown. For part of these data: At least one verdict was read from the data and is not stated in words by the source.

What was measured:
[1] = biological target: T1, A114R1 SsoSSB (MTSSL spin label) (Sulfolobus solfataricus) (UniProt Q97W73); test: EPR (PELDOR); conditions: 100 uM protein, 50 uM ssDNA, modulation depth increased; 50 mM Tris-HCl pH 7.6, 10 mM KCl, 5% glycerol, 0.1 mg/ml BSA, 5-50 nM DNA, 20 C (PIFE also 65 C); recombinant protein; protein details: MTSSL spin label at C114; single-stranded DNA
T1 sequence (looked up, limits assumed): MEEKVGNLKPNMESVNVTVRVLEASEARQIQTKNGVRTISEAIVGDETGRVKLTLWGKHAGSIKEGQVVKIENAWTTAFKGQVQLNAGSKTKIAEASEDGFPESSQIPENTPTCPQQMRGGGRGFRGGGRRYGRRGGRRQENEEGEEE

[2] = biological target: T2, A647-SsoSSB A114C (Sulfolobus solfataricus) (UniProt Q97W73); test: single-molecule FRET; conditions: 150 mM KCl, 10 nM protein, lower binding frequency; 50 mM Tris-HCl pH 7.6, 10 mM KCl, 5% glycerol, 0.1 mg/ml BSA, 5-50 nM DNA, 20 C (PIFE also 65 C); recombinant protein; protein details: Alexa Fluor 647 C2 maleimide at C114; label: 5' biotin, 3' Cy3; single-stranded DNA
T2 sequence (looked up, limits assumed): T1 sequence (looked up, limits assumed)

CCCCCCCCCCC [dC11]: binds [1].
TTTTTTTTTTTTT [dT13]: binds [1].
CCCCCCCCCCCC [BidC12Cy3]: binds more weakly [2].
